Where a name gives a salt, the structure may show the parent alone. The list shows a part of the results. Hit calls seldom repeat between salt and free forms of one compound.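 In K562 cells expressing nanoluciferase-fused kinases, luminescence was recorded at 4 h intervals between 2 and 18 h, normalized as percent of control with DMSO at 100% and a positive control at 0%. A significant (2 sigma) signal drop marks a time point as decreased. The authors' rule for a hit is not shown and takes in more than the number of time points.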
Columns and labels:
Experiment in all cases: number of time points (of 5) at which kinase-Nluc abundance scored as decreased, DMSO-normalised (count); higher = more persistent destabilization
Settings in all cases: K562; 2-18 h
[1] = biological target: NTRK3 (UniProt Q16288)
[2] = biological target: PAK4 (UniProt O96013)
[3] = biological target: PBK (UniProt Q96KB5)
[4] = biological target: PDGFRB (UniProt P09619)
[5] = biological target: PDK1 (UniProt Q15118)
[6] = biological target: PDPK1 (UniProt O15530)
[7] = biological target: PIK4CA (UniProt P42356)
[8] = biological target: PIK4CB (UniProt Q9UBF8)
[9] = biological target: PLK1 (UniProt P53350)
[10] = biological target: PRKAA1 (UniProt Q13131)

By UniProt entry, the sequences of proteins in these tests, tags left out. Where a name states a change or a piece, a line headed by the entry shows the natural chain unless it says otherwise.
UniProt Q16288, whole entry, looked up: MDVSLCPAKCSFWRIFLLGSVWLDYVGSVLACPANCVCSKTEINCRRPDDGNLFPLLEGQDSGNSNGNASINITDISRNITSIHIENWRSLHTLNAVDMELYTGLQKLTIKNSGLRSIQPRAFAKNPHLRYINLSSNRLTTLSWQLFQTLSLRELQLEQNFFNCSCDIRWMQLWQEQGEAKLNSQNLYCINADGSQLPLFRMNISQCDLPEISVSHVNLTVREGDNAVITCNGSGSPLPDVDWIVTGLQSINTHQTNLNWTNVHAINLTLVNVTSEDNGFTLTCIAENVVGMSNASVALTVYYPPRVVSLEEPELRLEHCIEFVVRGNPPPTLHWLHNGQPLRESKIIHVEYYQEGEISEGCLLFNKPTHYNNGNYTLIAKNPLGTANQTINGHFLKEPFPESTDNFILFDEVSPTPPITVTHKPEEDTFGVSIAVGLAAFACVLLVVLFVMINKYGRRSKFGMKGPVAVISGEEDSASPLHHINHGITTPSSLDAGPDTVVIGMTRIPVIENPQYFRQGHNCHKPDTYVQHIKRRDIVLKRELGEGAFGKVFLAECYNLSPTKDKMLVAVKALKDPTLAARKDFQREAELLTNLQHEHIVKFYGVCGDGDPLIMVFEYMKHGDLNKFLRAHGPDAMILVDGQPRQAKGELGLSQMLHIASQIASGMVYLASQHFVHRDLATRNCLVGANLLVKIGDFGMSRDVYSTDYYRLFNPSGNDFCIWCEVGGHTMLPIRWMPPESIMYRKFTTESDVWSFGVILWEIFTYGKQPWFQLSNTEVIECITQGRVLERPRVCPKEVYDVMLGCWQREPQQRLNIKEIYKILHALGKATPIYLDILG
UniProt O96013: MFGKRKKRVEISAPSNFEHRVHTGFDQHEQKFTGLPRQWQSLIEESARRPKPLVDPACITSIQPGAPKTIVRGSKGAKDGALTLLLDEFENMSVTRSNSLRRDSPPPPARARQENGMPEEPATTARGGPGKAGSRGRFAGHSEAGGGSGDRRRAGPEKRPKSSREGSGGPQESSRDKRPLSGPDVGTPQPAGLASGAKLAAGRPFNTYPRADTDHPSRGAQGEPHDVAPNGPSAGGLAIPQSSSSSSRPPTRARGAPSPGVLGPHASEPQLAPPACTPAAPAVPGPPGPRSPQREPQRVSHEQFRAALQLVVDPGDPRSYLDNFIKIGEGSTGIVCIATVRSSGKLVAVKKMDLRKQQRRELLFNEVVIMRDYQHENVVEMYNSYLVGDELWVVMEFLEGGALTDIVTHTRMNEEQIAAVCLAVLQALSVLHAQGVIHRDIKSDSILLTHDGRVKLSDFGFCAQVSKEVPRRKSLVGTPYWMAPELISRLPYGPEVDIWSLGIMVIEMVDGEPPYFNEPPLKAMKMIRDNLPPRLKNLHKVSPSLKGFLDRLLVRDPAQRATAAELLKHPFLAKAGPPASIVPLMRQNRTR
UniProt Q96KB5: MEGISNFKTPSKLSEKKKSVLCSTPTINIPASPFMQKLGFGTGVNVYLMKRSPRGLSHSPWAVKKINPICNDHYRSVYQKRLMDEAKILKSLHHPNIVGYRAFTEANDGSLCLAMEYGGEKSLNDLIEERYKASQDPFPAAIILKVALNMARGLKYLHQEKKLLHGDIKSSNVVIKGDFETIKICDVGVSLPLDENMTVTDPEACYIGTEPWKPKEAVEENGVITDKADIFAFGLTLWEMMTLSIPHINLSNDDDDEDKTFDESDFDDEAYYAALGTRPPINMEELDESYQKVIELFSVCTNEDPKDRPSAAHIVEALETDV
UniProt P09619, whole entry: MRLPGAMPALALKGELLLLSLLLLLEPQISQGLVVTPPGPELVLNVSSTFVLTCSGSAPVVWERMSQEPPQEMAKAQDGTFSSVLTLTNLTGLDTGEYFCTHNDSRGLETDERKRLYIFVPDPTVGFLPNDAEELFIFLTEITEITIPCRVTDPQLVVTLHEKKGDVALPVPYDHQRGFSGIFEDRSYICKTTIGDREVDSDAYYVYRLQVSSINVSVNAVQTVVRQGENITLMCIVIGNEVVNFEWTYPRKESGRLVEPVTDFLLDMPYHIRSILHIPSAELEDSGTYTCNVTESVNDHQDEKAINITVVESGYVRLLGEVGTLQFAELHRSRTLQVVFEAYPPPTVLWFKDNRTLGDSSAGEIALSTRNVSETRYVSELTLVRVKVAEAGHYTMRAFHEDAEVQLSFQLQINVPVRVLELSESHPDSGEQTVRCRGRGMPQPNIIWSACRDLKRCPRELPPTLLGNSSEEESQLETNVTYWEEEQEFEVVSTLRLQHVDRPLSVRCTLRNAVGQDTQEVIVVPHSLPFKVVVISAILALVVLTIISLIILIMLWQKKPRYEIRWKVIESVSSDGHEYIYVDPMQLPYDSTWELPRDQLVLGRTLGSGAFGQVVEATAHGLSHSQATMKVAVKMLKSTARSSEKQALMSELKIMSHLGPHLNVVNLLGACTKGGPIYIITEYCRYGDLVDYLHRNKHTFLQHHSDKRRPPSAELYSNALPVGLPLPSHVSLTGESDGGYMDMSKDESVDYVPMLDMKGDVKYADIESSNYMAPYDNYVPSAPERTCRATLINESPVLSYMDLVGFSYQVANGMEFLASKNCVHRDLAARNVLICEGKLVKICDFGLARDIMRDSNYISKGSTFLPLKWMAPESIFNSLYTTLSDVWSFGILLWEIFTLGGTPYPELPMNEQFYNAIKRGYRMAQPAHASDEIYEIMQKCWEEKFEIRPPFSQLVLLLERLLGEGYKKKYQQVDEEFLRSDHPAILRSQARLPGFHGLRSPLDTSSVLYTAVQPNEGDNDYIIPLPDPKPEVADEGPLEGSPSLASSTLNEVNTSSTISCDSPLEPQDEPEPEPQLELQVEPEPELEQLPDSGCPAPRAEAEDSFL
UniProt Q15118, whole entry, looked up: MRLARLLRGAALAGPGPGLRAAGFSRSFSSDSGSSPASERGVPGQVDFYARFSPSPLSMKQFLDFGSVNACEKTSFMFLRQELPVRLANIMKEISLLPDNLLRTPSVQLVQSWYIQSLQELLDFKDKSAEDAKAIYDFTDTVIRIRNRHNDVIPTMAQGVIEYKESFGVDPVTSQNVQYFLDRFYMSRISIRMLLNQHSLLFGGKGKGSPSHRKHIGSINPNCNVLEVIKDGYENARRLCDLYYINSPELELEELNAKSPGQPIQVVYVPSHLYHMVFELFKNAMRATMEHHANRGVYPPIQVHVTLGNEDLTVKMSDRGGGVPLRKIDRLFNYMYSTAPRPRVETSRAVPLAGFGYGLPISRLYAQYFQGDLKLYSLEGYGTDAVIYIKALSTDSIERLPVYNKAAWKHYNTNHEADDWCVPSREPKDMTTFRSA
UniProt O15530: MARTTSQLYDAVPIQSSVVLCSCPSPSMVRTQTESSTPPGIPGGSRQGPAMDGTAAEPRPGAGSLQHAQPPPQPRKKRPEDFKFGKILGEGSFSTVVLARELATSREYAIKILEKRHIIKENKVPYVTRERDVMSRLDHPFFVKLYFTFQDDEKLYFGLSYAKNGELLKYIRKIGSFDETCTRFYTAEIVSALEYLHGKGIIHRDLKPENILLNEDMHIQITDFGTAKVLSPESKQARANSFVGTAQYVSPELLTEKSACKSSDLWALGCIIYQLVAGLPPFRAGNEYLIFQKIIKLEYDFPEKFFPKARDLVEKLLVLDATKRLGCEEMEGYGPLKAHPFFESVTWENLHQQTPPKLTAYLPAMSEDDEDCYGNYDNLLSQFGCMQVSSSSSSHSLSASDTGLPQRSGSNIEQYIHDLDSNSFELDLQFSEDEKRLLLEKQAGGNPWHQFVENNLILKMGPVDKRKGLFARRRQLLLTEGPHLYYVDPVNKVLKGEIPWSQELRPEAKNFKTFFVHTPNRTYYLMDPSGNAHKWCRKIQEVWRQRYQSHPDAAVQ
UniProt Q9UBF8: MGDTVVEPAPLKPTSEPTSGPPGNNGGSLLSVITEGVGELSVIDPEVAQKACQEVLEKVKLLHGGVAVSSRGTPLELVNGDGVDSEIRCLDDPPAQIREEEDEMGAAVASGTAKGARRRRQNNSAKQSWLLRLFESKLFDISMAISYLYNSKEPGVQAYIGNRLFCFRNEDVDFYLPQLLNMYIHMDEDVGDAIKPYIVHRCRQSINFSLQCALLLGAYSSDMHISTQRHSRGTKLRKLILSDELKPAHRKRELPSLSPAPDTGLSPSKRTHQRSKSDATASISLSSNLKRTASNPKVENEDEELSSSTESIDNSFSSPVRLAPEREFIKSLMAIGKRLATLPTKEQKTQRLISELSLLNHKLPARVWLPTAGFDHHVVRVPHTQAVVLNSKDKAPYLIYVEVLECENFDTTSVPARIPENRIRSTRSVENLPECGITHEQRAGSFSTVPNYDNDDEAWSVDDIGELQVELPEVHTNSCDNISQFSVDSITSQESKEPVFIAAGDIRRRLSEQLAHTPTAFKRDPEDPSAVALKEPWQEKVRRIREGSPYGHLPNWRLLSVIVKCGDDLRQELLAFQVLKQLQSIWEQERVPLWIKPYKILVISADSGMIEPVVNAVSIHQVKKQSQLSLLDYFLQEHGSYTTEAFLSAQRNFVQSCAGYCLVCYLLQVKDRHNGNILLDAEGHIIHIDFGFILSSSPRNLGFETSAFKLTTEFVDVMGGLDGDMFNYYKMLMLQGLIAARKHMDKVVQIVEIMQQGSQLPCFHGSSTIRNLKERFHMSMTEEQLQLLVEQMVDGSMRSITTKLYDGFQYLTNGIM
UniProt P53350, whole entry: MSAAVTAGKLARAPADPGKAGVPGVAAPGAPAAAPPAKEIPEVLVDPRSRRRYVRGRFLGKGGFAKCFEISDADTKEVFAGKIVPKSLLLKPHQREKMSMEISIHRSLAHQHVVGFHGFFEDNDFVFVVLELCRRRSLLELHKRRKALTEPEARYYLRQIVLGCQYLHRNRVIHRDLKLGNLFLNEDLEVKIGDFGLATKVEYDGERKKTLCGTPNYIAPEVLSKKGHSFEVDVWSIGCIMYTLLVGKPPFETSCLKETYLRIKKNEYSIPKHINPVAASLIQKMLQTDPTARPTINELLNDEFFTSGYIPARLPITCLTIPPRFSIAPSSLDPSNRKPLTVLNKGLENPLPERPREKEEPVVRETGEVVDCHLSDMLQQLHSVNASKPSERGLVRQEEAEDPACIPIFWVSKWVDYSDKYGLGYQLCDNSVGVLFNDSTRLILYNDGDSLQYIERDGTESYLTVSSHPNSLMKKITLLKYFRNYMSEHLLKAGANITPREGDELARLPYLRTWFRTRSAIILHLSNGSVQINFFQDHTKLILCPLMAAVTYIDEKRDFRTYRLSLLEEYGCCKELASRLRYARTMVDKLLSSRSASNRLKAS
UniProt Q13131: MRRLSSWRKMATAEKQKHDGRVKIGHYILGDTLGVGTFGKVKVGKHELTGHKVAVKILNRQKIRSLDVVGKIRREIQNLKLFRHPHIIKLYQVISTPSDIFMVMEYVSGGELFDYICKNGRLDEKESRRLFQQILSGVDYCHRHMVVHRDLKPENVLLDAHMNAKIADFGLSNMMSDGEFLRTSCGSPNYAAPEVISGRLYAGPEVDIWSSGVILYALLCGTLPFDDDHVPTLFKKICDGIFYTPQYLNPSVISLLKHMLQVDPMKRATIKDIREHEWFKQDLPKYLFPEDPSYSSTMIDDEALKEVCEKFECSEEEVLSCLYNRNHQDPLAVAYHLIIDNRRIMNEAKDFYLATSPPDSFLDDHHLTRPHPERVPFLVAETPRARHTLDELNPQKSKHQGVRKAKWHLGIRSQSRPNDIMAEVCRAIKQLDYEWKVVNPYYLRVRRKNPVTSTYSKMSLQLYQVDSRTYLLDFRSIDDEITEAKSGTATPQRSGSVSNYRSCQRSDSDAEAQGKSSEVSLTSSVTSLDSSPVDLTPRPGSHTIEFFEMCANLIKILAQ

Measured: number of time points

CCN(CC)c1ccc2cc(-c3nc4cc(C)ccc4o3)c(=O)oc2c1 (10 µM)
0: all assays above

O=Nc1c2[nH]c3ccccc3nc-2c2ccccc12 [IQ-1S (free acid)] (2.5 µM)
0: all assays above

C[C@@H]1CN(c2cc(-c3n[nH]c4ccc(OC5(C)CC5)cc34)ncn2)C[C@H](C)O1 (10 µM)
0: all assays above

CCn1c(=O)c(-c2cc[nH]n2)cc2c(C)nc(N)nc21 [Voxtalisib] (10 µM)
2: [8]
0: all other assays above

COc1cc(-c2cn[nH]c2)ccc1C(=O)Nc1ccc2c(c1)CCNCC2 (10 µM)
0: all assays above

CN1CC[C@@H](c2c(O)cc(O)c3c(=O)cc(-c4ccc(C(F)(F)F)cc4Cl)oc23)[C@@H]1CO [Voruciclib (hydrochloride)] (10 µM)
0: all assays above

Cn1cc(C2=C(c3cccc(N)c3)C(=O)NC2=O)c2ccccc21 (10 µM)
0: all assays above

C[C@H](Nc1ncnc2[nH]cnc12)c1cc2ccc(F)cc2nc1-c1ccccn1 (10 µM)
0: all assays above

CC1(C)Cc2c(sc(NC(=S)NC(=O)c3ccccc3)c2C(=O)O)CO1 (10 µM)
0: all assays above

COc1cc(N(C)CCN(C)C)c(N)cc1Nc1nccc(-c2cn(C)c3ccccc23)n1 [Mutated EGFR-IN-1] (10 µM)
0: all assays above

COc1ccc(/C=C/C(=O)C2(C(=O)/C=C/c3ccc(OC)c(OC)c3)CCCCC2)cc1OC (2.5 µM)
0: all assays above

Cc1cc(Nc2ncnc3ccc(-c4ccc(CNCCS(C)(=O)=O)o4)cc23)ccc1Oc1ccn2ncnc2c1 [ARRY-380 (analog )] (2.5 µM)
0: all assays above

COc1ccc(N=Nc2c(N)n[nH]c2N)cc1 (10 µM)
0: all assays above

CC(C)N1CCN(c2ccc(Nc3ncc4cc5n(c4n3)C3(CCCCC3)CNC5=O)nc2)CC1 [Lerociclib (dihydrochloride)] (2 µM)
2: [4]
0: all other assays above

CC(C)c1cc(/C=C(\C#N)C(=O)NCCCc2ccccc2)cc(C(C)C)c1O (10 µM)
0: all assays above

COCCNc1cc(NC(=O)N2CCCc3cc(CN4CCN(C)CC4=O)c(C=O)nc32)ncc1C#N [Roblitinib] (10 µM)
0: all assays above

Cc1ccc(-c2csc3ncnc(SCCC(=O)O)c23)cc1 (10 µM)
0: all assays above

c1cc(NC2CCNCC2)nc(-c2cnc3ccccn23)c1 [IRAK inhibitor 1] (10 µM)
1: [10]
0: all other assays above

O=C1NC(=Nc2c(Cl)cccc2Cl)S/C1=C\c1ccc2nccnc2c1 (2.5 µM)
5: [1]
2: [4]
1: [6]
0: all other assays above

O=C1NC(=O)C(c2cnc3ccccn23)=C1c1cn2c3c(cc(F)cc13)CNCC2 [GSK-3 inhibitor 1] (2.5 µM)
0: all assays above

O=C(O)c1cccc(CN2C(=O)/C(=C(\c3ccccc3)c3ccc(Cl)cc3)c3ccccc32)c1 (2.5 µM)
0: all assays above

Cc1cccc(-c2[nH]c(C(C)(C)C)nc2-c2ccc3nccnc3c2)n1 (10 µM)
0: all assays above

COc1cc(N2CCOCC2)ccc1Nc1ncc(Cl)c(Nc2ccccc2NS(C)(=O)=O)n1 (2.5 µM)
0: all assays above

CC(=O)N1CCC(c2cc(-c3ccc(NC(=O)c4cccn(-c5ccc(F)cc5)c4=O)cc3F)c3c(N)ncnn23)CC1 (0.5 µM)
0: all assays above

O=C(NCc1cccc(O)c1)Nc1nc(-c2ccncc2)cs1 (10 µM)
0: all assays above

CC(C)=CCc1c(-c2ccc(O)cc2O)oc2c3c(cc(O)c2c1=O)OC(C)(C)C=C3 [Morusin] (2.5 µM)
0: all assays above

COc1ccc2cc3[n+](cc2c1OC)CCc1cc(O)c(O)cc1-3 [Demethyleneberberine] (10 µM)
0: all assays above

CNc1cc(Nc2cccn(-c3ccccn3)c2=O)nn2c(C(=O)N[C@@H]3C[C@@H]3F)cnc12 (2.5 µM)
0: all assays above

Cc1nc(-c2cnn(C)c2)nc2c1[nH]c1ncc(-c3ccc(N4CCN(C)CC4)cc3)cc12 [GNE 220 (hydrochloride)] (10 µM)
0: all assays above

CNc1nc(Nc2ccc(C(=O)N3CCOCC3)cc2OC)ncc1Cl (2.5 µM)
0: all assays above

CCOC(=O)N1C/C(=C/c2ccccc2F)C(=O)/C(=C\c2ccccc2F)C1 (2.5 µM)
0: all assays above

Cc1ccc2c(Nc3cccc(Cl)c3F)nccc2c1NC(=O)c1csc2c(N)ncnc12 [Belvarafenib] (10 µM)
0: all assays above

Nc1cccc(-c2cc3c(Oc4cccc(O)c4)ncnc3[nH]2)c1 (10 µM)
2: [8]
1: [4] | [10]
3: [6]
0: all other assays above

C[C@@H]1CCNC(=O)c2cc3ccc(C(=O)Nc4nc5ccccc5n4CCCN(C)C)cc3n21 (10 µM)
0: all assays above

C=CC(=O)N1C(=O)CC(c2ccc(F)cc2)Sc2ccccc21 (stereo not drawn) [GSK-3β inhibitor 3] (10 µM)
0: all assays above

By substructure, those above with a cyano group
CC(C)c1cc(/C=C(\C#N)C(=O)NCCCc2ccccc2)cc(C(C)C)c1O (10 µM)
0: all assays above

COCCNc1cc(NC(=O)N2CCCc3cc(CN4CCN(C)CC4=O)c(C=O)nc32)ncc1C#N [Roblitinib] (10 µM)
0: all assays above

Next part.

Nc1ncnc2c1c(-c1ccc(Oc3ccccc3)cc1)nn2C1CCN(CCOCCOCCOc2ccc3c(c2)CN(C2CCC(=O)NC2=O)C3=O)CC1 (stereo not given) (2.5 µM)
0: all assays above

O=c1cc(N2CCOCC2)nc2c3ccccc3ccn12 [Compound 401] (10 µM)
0: all assays above

CCCCCCCC/C=C\CCCCCCCCCCCC(=O)O [Erucic acid] (10 µM)
0: all assays above
